For 63 molecules, AC50 results are on record in PubChem BioAssay AID445 (National Center for Advancing Translational Sciences (NCATS), 2006).

Each structure is given as a SMILES string. This is one part of the list. These are further read-outs of the screen, such as a control signal, another cell line or another target. No call is given for them. Compounds called inactive in the main read-out are mostly missing here. Potencies come from curve fits of mixed quality, noted in brackets.

This test is described as follows: IkB Signaling. The following applies: ABC-DLBCL IkBa-CBG/CBR dual luciferase ratio (green luciferase fused to IkBa over red control in OCI-Ly3 lymphoma cells), 4 h; measured here: control luc red channel unless noted. The method, boiled down:
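In this assay, an IκBα–CBG68 fusion accumulates when IKK-driven degradation is blocked; native CBR normalizes for cell number. OCI-Ly3 cells were treated 4 h with compound and doxycycline, then green and red light read after Chroma-Glo addition.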
Consider `Cc1ccc(Nc2c(-c3ccncc3)nc3ccc(C)cn23)cc1`, for which the AC50 was 31.6 µM [falling, partial curve].

For the molecule `Cc1cc(NC(=O)C2CCCCC2)nc2c1c(=O)oc1ccccc12`, the AC50 is 20 µM [falling, partial curve].

On to `Cc1ccc(CN(C(=O)COc2cccc([N+](=O)[O-])c2)c2ccccn2)cc1`, for which the AC50 was 25.1 µM [falling, single point].

With `CCOC(=O)C1CCN(c2ncnc3c2nnn3C)CC1`, the AC50 was 6.31 µM [rising, partial curve].

For `O=C(Nc1ccc2c(c1)OCO2)c1noc2c1CCCCC2`, the AC50 is 5.01 µM [falling, partial curve].

For the molecule `CC(C)NC(=O)c1ccc(-n2c(-c3ccccc3)cc3c2CCCCC3)cc1`, the AC50 is 10 µM [falling, partial curve].

Consider `Cc1cc(C)cc(OCC(=O)Nc2ccc(-c3nc4ccccc4s3)cc2)c1`, for which the concentration at half-maximal activity (AC50) was 0.398 µM [rising, full curve].

Turning to `Cn1nnc2c(N3CCN(c4ccccc4F)CC3)ncnc21`, the AC50 is 5.01 µM [rising, partial curve].

`Cc1ccccc1C(=O)Nc1cccc(C(=O)OCc2cc(=O)n3c4c(sc3n2)CCCC4)c1`: the AC50 was 2.51 µM [falling, full curve].

As for `Cc1ccc(NC(=O)N(Cc2cn(C)c3ccccc23)C2CCCCC2)cc1C`, the concentration at half-maximal activity (AC50) is 7.94 µM [falling, partial curve].

`CCC1CCCCN1CC(=O)N1CCCc2c1c(=O)oc1ccc(OCc3ccccc3)cc21` (stereo not drawn): the AC50 was 20 µM [falling, partial curve].

Consider `CCN1CCN(c2ccc(NS(=O)(=O)c3c(C)nc4sccn4c3=O)cc2Cl)CC1`, for which the concentration at half-maximal activity (AC50) is 15.8 µM [falling, partial curve].

For the molecule `COc1ccc(C(=O)CC2(O)C(=O)N(Cc3ccccc3Cl)c3ccccc32)cc1` (stereo not drawn), the concentration at half-maximal activity (AC50) is 25.1 µM [falling, single point].

As to `O=C(CCCCCn1c(SCc2ccncc2)nc2ccccc2c1=O)NCc1ccco1`, the half-maximal activity concentration (AC50) was 12.6 µM [falling, partial curve].

As to `CC(C)c1ccc(CNc2nc(-c3ccco3)nn2S(=O)(=O)c2ccc3ccccc3c2)cc1`, the AC50 was 10 µM [falling, partial curve].

For `O=C(CSc1nc(-c2ccccc2)cs1)NC(=O)NCc1ccco1`, the AC50 was 7.94 µM [falling, partial curve].

In the case of `CCCS(=O)(=O)c1ncc(Cl)c(C(=O)Nc2scc(-c3ccccc3)c2C(=O)OCC)n1`, the concentration at half-maximal activity (AC50) is 7.94 µM [falling, full curve].

Consider `O=S(=O)(c1ccccc1)c1nc(-c2ccc(Cl)cc2Cl)oc1N1CCCCCC1`, for which the AC50 was 39.8 µM [falling, single point].

Consider `O=C1CC(c2nc3ccccc3n2Cc2c(F)cccc2Cl)CN1c1cccc(C(F)(F)F)c1` (stereo not drawn), for which the AC50 was 12.6 µM [falling, partial curve].

With `COc1ccc(NC(=O)CC2C(=O)N(c3ccc(C)cc3)C(=O)N2CCc2ccccc2)cc1` (stereo not drawn), the concentration at half-maximal activity (AC50) was 20 µM [falling, partial curve].

Regarding `COC(=O)c1c(NC(=O)CCCOc2ccc(C)cc2)sc2c1C(C(=O)OC)CC2` (stereo not drawn), the concentration at half-maximal activity (AC50) is 6.31 µM [rising, single point].

As for `Cc1nc2ccn(Cc3ccco3)c(=O)c2cc1C(=O)N1CCN(c2ccccc2F)CC1`, the AC50 was 31.6 µM [falling, single point].

Take `CCOC(=O)C1CCCN(CC(=O)Nc2c(C(=O)OC)[nH]c3ccc(Br)cc23)C1` (stereo not drawn): the AC50 is 31.6 µM [falling, single point].

For `COc1cccc(OCc2nc3ccccc3n2CCOc2ccccc2)c1`, the half-maximal activity concentration (AC50) was 20 µM [falling, partial curve].

For `Cc1ccc(S(=O)(=O)N2CCCC(c3nc4c(nnn4Cc4ccc(OC(F)(F)F)cc4)c(=O)[nH]3)C2)cc1` (stereo not drawn), the half-maximal activity concentration (AC50) was 3.16 µM [rising, full curve, poor fit].

Consider `O=C(Cn1c(=O)nc(-c2ccccc2)c2cc(Cl)ccc21)NCc1ccccc1`, for which the AC50 was 31.6 µM [falling, partial curve, poor fit].

Turning to `Cn1nc(-c2ccc(OCC(=O)Nc3ccccc3)cc2)c2ccccc2c1=O`, the concentration at half-maximal activity (AC50) is 31.6 µM [falling, partial curve].

On to `COc1cc(OC)cc(C(=O)Nc2ccc(S(=O)(=O)Nc3cc(C)nc(C)n3)cc2)c1`, for which the AC50 was 10 µM [falling, partial curve].

As to `CCCCn1c(COc2cccc(OC)c2)nc2ccccc21`, the concentration at half-maximal activity (AC50) is 20 µM [falling, single point].

For the molecule `COc1ccc(CCN2CC(C(=O)NCCc3ccc(C)cc3)CC2=O)cc1OC` (stereo not drawn), the AC50 was 0.0126 µM [falling, full curve, poor fit].

`CC(C)(CC(=O)OCC(=O)Nc1ccc(F)c(Cl)c1)CC1=NS(=O)(=O)c2ccccc2N1`: the half-maximal activity concentration (AC50) was 15.8 µM [falling, partial curve].

Take `Cc1cc(C)nc(SCC(=O)N2CCOCC2)n1`: the half-maximal activity concentration (AC50) is 31.6 µM [rising, partial curve].

Take `Cc1ccccc1NC(=O)c1sc2nc(-c3ccncc3)ccc2c1N`: the half-maximal activity concentration (AC50) is 15.8 µM [falling, partial curve].

As for `CC(=O)Cc1nsc(NC(=O)c2ccc(-c3ccccc3Cl)o2)n1`, the half-maximal activity concentration (AC50) is 5.01 µM [falling, partial curve].

Turning to `CC(=O)Oc1c(C)cc(O)c2ccccc12`, the AC50 is 12.6 µM [falling, partial curve].

As to `CCOC(=O)c1ccc(N2C(=O)c3n[nH]c(-c4cccs4)c3C2c2ccc(C)cc2)cc1` (stereo not drawn), the AC50 is 20 µM [falling, partial curve, poor fit].

In the case of `COC(=O)c1ccc(CSc2nc3scc(-c4cccs4)c3c(=O)[nH]2)o1`, the half-maximal activity concentration (AC50) was 15.8 µM [falling, partial curve].

On to `CCCN(CCC)CCCNC(=O)Cn1ncc2c3ccccc3n(Cc3ccc(F)cc3)c2c1=O`, for which the AC50 is 12.6 µM [falling, single point].

Regarding `CCCCOc1cccc(C(=O)Nc2cc3nn(-c4ccc(F)cc4)nc3cc2C)c1`, the half-maximal activity concentration (AC50) is 1 µM [rising, full curve, poor fit].

With `Clc1cccc(-c2cc3nc4c(c(N5CCOCC5)n3n2)CCCC4)c1`, the AC50 is 20 µM [falling, partial curve].

Take `Cc1cc2ccccc2n1-c1ccc(C(=O)N2CCCCC2)s1`: the AC50 was 31.6 µM [falling, partial curve].

For the molecule `O=C(CSc1nc2ccccc2o1)Nc1nc2c(s1)CCCC2`, the concentration at half-maximal activity (AC50) was 20 µM [falling, partial curve].

Consider `CC(C)Oc1ccc(CNC(=O)c2ccc(NC(=O)c3nsc4ccccc34)cc2)cc1`, for which the AC50 is 0.316 µM [falling, full curve].

Regarding `CC1CCCN(C(=O)c2ccc3c(c2)C(=O)N(CCC2=CCCCC2)C3=O)C1` (stereo not drawn), the half-maximal activity concentration (AC50) is 20 µM [falling, partial curve].

For the molecule `CCN(CCCNC(=O)c1cc2cc3cc(C)ccc3nc2s1)c1cccc(C)c1`, the AC50 is 15.8 µM [falling, partial curve, poor fit].

With `COc1ccc(/C=C(/C#N)c2nc(-c3ccc(-c4ccccc4)cc3)cs2)cc1`, the concentration at half-maximal activity (AC50) was 0.398 µM [falling, full curve].

In the case of `Cc1nc(-c2ccccc2)sc1CCNC(=O)c1ccco1`, the AC50 is 5.01 µM [rising, full curve, poor fit].

`COC(=O)c1ccc(CN(c2ccccc2OC)S(=O)(=O)c2cccs2)o1`: the AC50 is 15.8 µM [falling, partial curve].

Take `CCN(C(=O)Cn1ncc2c1-c1cc(C)ccc1OC2)c1cc(Cl)ccc1OC`: the concentration at half-maximal activity (AC50) was 25.1 µM [falling, single point].

Take `CCc1ccccc1NC(=O)CSc1ncc2c(n1)-c1ccccc1N(Cc1ccc(C)cc1)S2(=O)=O`: the concentration at half-maximal activity (AC50) is 7.94 µM [falling, partial curve].

As for `COc1ccc2c(c1)CCc1c(C(=O)NCc3cccnc3)noc1-2`, the AC50 was 2.51 µM [falling, partial curve].

For the molecule `COc1ccccc1-c1cc(C(=O)NCc2ccco2)no1`, the AC50 was 1.26 µM [falling, full curve].

For `COc1ccc(-n2ncc(C(=O)N3CCN(c4ccccn4)CC3)c2C2CCN(C(=O)OC(C)(C)C)CC2)cc1`, the AC50 was 31.6 µM [falling, single point].

In the case of `CC(Sc1oc(-c2ccco2)nc1S(=O)(=O)c1ccc(Br)cc1)c1ccccc1` (stereo not drawn), the concentration at half-maximal activity (AC50) is 3.98 µM [falling, full curve].

`CCCCNc1nc(Oc2ccc(=O)n(-c3ccccc3)n2)nc(N(C)C)n1`: the concentration at half-maximal activity (AC50) is 7.94 µM [falling, single point].

On to `CC1(N2CCOCC2)CC2(O)C(=[N+]1[O-])CCc1c2no[n+]1[O-]` (stereo not drawn), for which the half-maximal activity concentration (AC50) was 7.94 µM [rising, partial curve] [measured here: IkB-luc green channel].

With `CCC(C)NC(=O)c1ccc2c(c1)N(Cc1cccc(Cl)c1)C(=O)c1ccccc1S2=O` (stereo not drawn), the AC50 was 3.16 µM [falling, partial curve].

On to `COc1ccc(N2CCN(c3nc(-c4ccccc4F)nc4ccccc34)CC2)cc1`, for which the AC50 is 12.6 µM [falling, partial curve].

For the molecule `O=C(CN(c1cccc(Br)c1)S(=O)(=O)c1ccccc1)N1CCc2ccccc2C1`, the AC50 is 20 µM [falling, single point].

Consider `CCOc1ccccc1NC(=O)C(NS(=O)(=O)c1cccc2nsnc12)c1ccccc1` (stereo not drawn), for which the concentration at half-maximal activity (AC50) was 39.8 µM [falling, single point].

With `Cc1nnc(N2CCN(c3ccccc3F)CC2)c2c1nnn2Cc1ccc(F)cc1`, the AC50 is 20 µM [falling, partial curve].

For `CCOC(=O)Cn1c(=O)cc(-c2ccccc2)c2c(C)nn(C)c21`, the AC50 was 0.251 µM [falling, full curve, poor fit].

Regarding `O=C(c1cccc2c1-c1ccccc1/C2=N/O)N1CCCCC1`, the AC50 is 10 µM [falling, partial curve].

As a reminder, the AC50 is the midpoint of the concentration-response curve, whichever way the signal moves.
